# Source: publication PMC6172191
# The chains behind the UniProt entries cited, without tags or fusion partners.
# UniProt O75131: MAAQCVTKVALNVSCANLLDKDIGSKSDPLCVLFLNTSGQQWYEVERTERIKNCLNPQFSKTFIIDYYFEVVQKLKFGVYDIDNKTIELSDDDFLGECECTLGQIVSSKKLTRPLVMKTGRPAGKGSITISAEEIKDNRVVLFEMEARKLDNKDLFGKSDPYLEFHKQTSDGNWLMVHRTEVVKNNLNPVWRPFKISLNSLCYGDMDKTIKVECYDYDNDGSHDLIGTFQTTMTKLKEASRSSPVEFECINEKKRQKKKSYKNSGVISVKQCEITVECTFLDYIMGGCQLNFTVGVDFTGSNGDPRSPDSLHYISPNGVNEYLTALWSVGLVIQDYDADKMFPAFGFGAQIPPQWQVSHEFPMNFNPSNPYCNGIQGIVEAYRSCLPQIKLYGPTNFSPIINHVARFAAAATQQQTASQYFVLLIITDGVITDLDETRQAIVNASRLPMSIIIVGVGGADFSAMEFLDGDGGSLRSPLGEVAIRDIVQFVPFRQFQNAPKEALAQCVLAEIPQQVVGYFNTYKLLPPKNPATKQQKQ
# No constants are given. Whether binding was seen depends on the method and setting. Binding seen in cells or lysates may run through a third protein. Some entries that bind do so weakly or less than the wild type. For some assays here: Tags and fused reporters may be left off the sequences shown.
# Key:
# [1] = molecular target: T1, EMP1 intracellular loop peptide (…) (human); experiment: pull-down; peptide-bound Sepharose beads or control beads with lysates of HEK293 cells transfected with EGFP-copine-III constructs; western blotting; only the target purified
# T1 sequence (peptide): FTMEKGNRF
# FLAG-EMP1 (human) [2] = molecular target: T2, FLAG-EMP1 (human) (UniProt P54849); experiment: co-IP; membrane fraction of Cos7 cells transfected with FLAG-EMP1 and EGFP-copine-III; anti-FLAG antibody or control IgG; western blotting
# T2 sequence (chain, glycosylated (site not stated)): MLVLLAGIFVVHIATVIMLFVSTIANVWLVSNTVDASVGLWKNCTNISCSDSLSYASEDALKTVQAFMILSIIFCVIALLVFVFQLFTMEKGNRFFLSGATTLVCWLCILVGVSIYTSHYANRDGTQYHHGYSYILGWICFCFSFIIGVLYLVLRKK
# [3] = molecular target: T3, EMP1 (endogenous) (human (endogenous in PC3)) (UniProt P54849); experiment: co-IP; endogenous proteins in PC3 cell lysates (Supplementary Figure S2); immunoprecipitation and western blotting
# T3 sequence: T2 sequence (chain, glycosylated (site not stated))
# FLAG-EMP1 (human) [4] = molecular target: T2, FLAG-EMP1 (human); experiment: co-IP; lysates of LNCaP #2 and #17 cells (RIPA buffer); primary antibody (anti-FLAG, anti-Src, anti-copine-III or anti-Vav2) overnight at 4 °C, protein G Sepharose; western blotting
binding [1],binding (FLAG-EMP1 (human) [2]),binding [3],binding (FLAG-EMP1 (human) [4]),Substance
binds,binds,–,–,EGFP-copine-III-WT (from UniProt O75131 1-537)
binds,–,binds,binds,copine-III (endogenous) (from UniProt O75131 1-537)
